Test results as given in the supplement of paper PMC8728848.
The other results are listed elsewhere or left out.

Experiments:
Assay in all cases: glycan array binding signal (z-score within array); higher = stronger binding
Conditions in all cases: glycan notation: IUPAC condensed, linker removed
[1] = molecular target: Neu5Ac(a2-3)Gal(b1-4)GlcNAc(b1-3)[Neu5Ac(a2-3)Gal(b1-4)GlcNAc(b1-6)]GalNAc
Outline: (§1)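 The Consortium for Functional Glycomics database supplied 3228 glycan arrays, of which those lacking an available protein sequence were dropped. The binding signal, a within-array Z-score, was averaged across arrays of the same protein sequence and across linkers. Negative scores can be read as non-binding.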

[2] = molecular target: Neu5Ac(a2-3)Gal(b1-4)GlcNAc(b1-6)GalNAc
Outline: as §1

[3] = molecular target: Neu5Ac(a2-3)Gal(b1-4)GlcNAc(b1-6)[Gal(b1-3)]GalNAc
Outline: as §1

[4] = molecular target: Neu5Ac(a2-3)Gal(b1-4)GlcNAc(b1-6)[Neu5Ac(a2-3)Gal(b1-3)]GalNAc
Outline: as §1

[5] = molecular target: Neu5Ac(a2-3)Gal(b1-4)GlcNAc6S
Outline: as §1

[6] = molecular target: Neu5Ac(a2-3)Gal(b1-4)[Fuc(a1-3)]GlcNAc
Outline: as §1

[7] = molecular target: Neu5Ac(a2-3)Gal(b1-4)[Fuc(a1-3)]GlcNAc(b1-2)Man
Outline: as §1

[8] = molecular target: Neu5Ac(a2-3)Gal(b1-4)[Fuc(a1-3)]GlcNAc(b1-3)Gal
Outline: as §1

[9] = molecular target: Neu5Ac(a2-3)Gal(b1-4)[Fuc(a1-3)]GlcNAc(b1-3)Gal(b1-4)GlcNAc
Outline: as §1

[10] = molecular target: Neu5Ac(a2-3)Gal(b1-4)[Fuc(a1-3)]GlcNAc(b1-3)Gal(b1-4)[Fuc(a1-3)]GlcNAc(b1-3)Gal(b1-4)[Fuc(a1-3)]GlcNAc
Outline: as §1

[11] = molecular target: Neu5Ac(a2-3)Gal(b1-4)[Fuc(a1-3)]GlcNAc(b1-3)GalNAc
Outline: as §1

[12] = molecular target: Neu5Ac(a2-3)Gal(b1-4)[Fuc(a1-3)]GlcNAc(b1-6)[Gal(b1-3)]GalNAc
Outline: as §1

[13] = molecular target: Neu5Ac(a2-3)Gal(b1-4)[Fuc(a1-3)]GlcNAc(b1-6)[Neu5Ac(a2-3)Gal(b1-3)]GalNAc
Outline: as §1

[14] = molecular target: Neu5Ac(a2-3)Gal(b1-4)[Fuc(a1-3)]GlcNAc6S
Outline: as §1

[15] = molecular target: Neu5Ac(a2-3)Gal6S(b1-4)GlcNAc
Outline: as §1

[16] = molecular target: Neu5Ac(a2-3)Gal6S(b1-4)[Fuc(a1-3)]GlcNAc
Outline: as §1

Neu5Ac(a2-3)GalNAc = molecular target: Neu5Ac(a2-3)GalNAc
Outline: as §1

[17] = molecular target: Neu5Ac(a2-3)GalNAc(b1-4)GlcNAc
Outline: as §1

[18] = molecular target: Neu5Ac(a2-3)[GalNAc(b1-4)]Gal(b1-4)Glc
Outline: as §1

[19] = molecular target: Neu5Ac(a2-3)[GalNAc(b1-4)]Gal(b1-4)GlcNAc
Outline: as §1

[20] = molecular target: Neu5Ac(a2-3)[GalNAc(b1-4)]Gal(b1-4)GlcNAc(b1-3)GalNAc
Outline: as §1

[21] = molecular target: Neu5Ac(a2-3)[Neu5Ac(a2-6)]GalNAc
Outline: as §1

Neu5Ac(a2-6)Gal = molecular target: Neu5Ac(a2-6)Gal
Outline: as §1

[22] = molecular target: Neu5Ac(a2-6)Gal(b1-3)GlcNAc(b1-3)[Gal(b1-4)GlcNAc(b1-6)]Gal(b1-4)Glc
Outline: as §1

Neu5Ac(a2-6)Gal(b1-4)Glc = molecular target: Neu5Ac(a2-6)Gal(b1-4)Glc
Outline: as §1

[23] = molecular target: Neu5Ac(a2-6)Gal(b1-4)GlcNAc
Outline: as §1

[24] = molecular target: Neu5Ac(a2-6)Gal(b1-4)GlcNAc(b1-2)Man
Outline: as §1

[25] = molecular target: Neu5Ac(a2-6)Gal(b1-4)GlcNAc(b1-2)Man(a1-3)Man(b1-4)GlcNAc(b1-4)GlcNAc
Outline: as §1

[26] = molecular target: Neu5Ac(a2-6)Gal(b1-4)GlcNAc(b1-2)Man(a1-3)[Gal(b1-4)GlcNAc(b1-2)Man(a1-6)]Man(b1-4)GlcNAc(b1-4)GlcNAc
Outline: as §1

[27] = molecular target: Neu5Ac(a2-6)Gal(b1-4)GlcNAc(b1-2)Man(a1-3)[GlcNAc(b1-2)Man(a1-6)]Man(b1-4)GlcNAc(b1-4)GlcNAc
Outline: as §1

[28] = molecular target: Neu5Ac(a2-6)Gal(b1-4)GlcNAc(b1-2)Man(a1-3)[GlcNAc(b1-4)][Neu5Ac(a2-6)Gal(b1-4)GlcNAc(b1-2)Man(a1-6)]Man(b1-4)GlcNAc(b1-4)GlcNAc
Outline: as §1

[29] = molecular target: Neu5Ac(a2-6)Gal(b1-4)GlcNAc(b1-2)Man(a1-3)[Man(a1-6)]Man(b1-4)GlcNAc(b1-4)GlcNAc
Outline: as §1

[30] = molecular target: Neu5Ac(a2-6)Gal(b1-4)GlcNAc(b1-2)Man(a1-3)[Neu5Ac(a2-3)Gal(b1-4)GlcNAc(b1-2)Man(a1-6)]Man(b1-4)GlcNAc(b1-4)GlcNAc
Outline: as §1

[31] = molecular target: Neu5Ac(a2-6)Gal(b1-4)GlcNAc(b1-2)Man(a1-3)[Neu5Ac(a2-6)Gal(b1-4)GlcNAc(b1-2)Man(a1-6)]Man(b1-4)GlcNAc(b1-4)GlcNAc
Outline: as §1

[32] = molecular target: Neu5Ac(a2-6)Gal(b1-4)GlcNAc(b1-2)Man(a1-3)[Neu5Ac(a2-6)Gal(b1-4)GlcNAc(b1-2)Man(a1-6)]Man(b1-4)GlcNAc(b1-4)[Fuc(a1-6)]GlcNAc
Outline: as §1

[33] = molecular target: Neu5Ac(a2-6)Gal(b1-4)GlcNAc(b1-2)Man(a1-6)Man(b1-4)GlcNAc(b1-4)GlcNAc
Outline: as §1

[34] = molecular target: Neu5Ac(a2-6)Gal(b1-4)GlcNAc(b1-2)Man(a1-6)[Gal(b1-4)GlcNAc(b1-2)Man(a1-3)]Man(b1-4)GlcNAc(b1-4)GlcNAc
Outline: as §1

[35] = molecular target: Neu5Ac(a2-6)Gal(b1-4)GlcNAc(b1-2)Man(a1-6)[GlcNAc(b1-2)Man(a1-3)]Man(b1-4)GlcNAc(b1-4)GlcNAc
Outline: as §1

[36] = molecular target: Neu5Ac(a2-6)Gal(b1-4)GlcNAc(b1-2)Man(a1-6)[Man(a1-3)]Man(b1-4)GlcNAc(b1-4)GlcNAc
Outline: as §1

[37] = molecular target: Neu5Ac(a2-6)Gal(b1-4)GlcNAc(b1-2)[Neu5Ac(a2-6)Gal(b1-4)GlcNAc(b1-4)]Man(a1-3)[GlcNAc(b1-4)][Neu5Ac(a2-6)Gal(b1-4)GlcNAc(b1-2)[Neu5Ac(a2-6)Gal(b1-4)GlcNAc(b1-6)]Man(a1-6)]Man(b1-4)GlcNAc(b1-4)GlcNAc
Outline: as §1

[38] = molecular target: Neu5Ac(a2-6)Gal(b1-4)GlcNAc(b1-2)[Neu5Ac(a2-6)Gal(b1-4)GlcNAc(b1-4)]Man(a1-3)[GlcNAc(b1-4)][Neu5Ac(a2-6)Gal(b1-4)GlcNAc(b1-4)Man(a1-6)]Man(b1-4)GlcNAc(b1-4)GlcNAc
Outline: as §1

[39] = molecular target: Neu5Ac(a2-6)Gal(b1-4)GlcNAc(b1-2)[Neu5Ac(a2-6)Gal(b1-4)GlcNAc(b1-6)]Man(a1-6)[Neu5Ac(a2-6)Gal(b1-4)GlcNAc(b1-2)Man(a1-3)][GlcNAc(b1-4)]Man(b1-4)GlcNAc(b1-4)GlcNAc
Outline: as §1

[40] = molecular target: Neu5Ac(a2-6)Gal(b1-4)GlcNAc(b1-3)Gal(b1-3)GlcNAc
Outline: as §1

[41] = molecular target: Neu5Ac(a2-6)Gal(b1-4)GlcNAc(b1-3)Gal(b1-4)GlcNAc
Outline: as §1

[42] = molecular target: Neu5Ac(a2-6)Gal(b1-4)GlcNAc(b1-3)Gal(b1-4)GlcNAc(b1-2)Man(a1-3)[Neu5Ac(a2-6)Gal(b1-4)GlcNAc(b1-3)Gal(b1-4)GlcNAc(b1-2)Man(a1-6)]GalNAc
Outline: as §1

[43] = molecular target: Neu5Ac(a2-6)Gal(b1-4)GlcNAc(b1-3)Gal(b1-4)GlcNAc(b1-3)Gal(b1-4)GlcNAc
Outline: as §1

B1: AT5G17240(42) (Arabidopsis thaliana), Q6NQJ8 (protein)
chain: MDLEHQTMETFLRWAAEIGISDSIDSSRFRDSCLGHSLSVSDFPDAGGRGLGAARELKKGELVLKVPRKALMTTESIIAKDLKLSDAVNLHNSLSSTQILSVCLLYEMSKEKKSFWYPYLFHIPRDYDLLATFGNFEKQALQVEDAVWATEKATAKCQSEWKEAGSLMKELELKPKFRSFQAWLWASATISSRTLHVPWDSAGCLCPVGDLFNYDAPGDYSNTPQGPESANNVEEAGLVVETHSERLTDGGFEEDVNAYCLYARRNYQLGEQVLLCYGTYTNLELLEHYGFMLEENSNDKVFIPLETSLFSLASSWPKDSLYIHQDGKLSFALISTLRLWLIPQSQRDKSVMRLVYAGSQISVKNEILVMKWMSEKCGSVLRDLPTSVTEDTVLLHNIDKLQDPELRLEQKETEAFGSEVRAFLDANCLWDVTVLSGKPIEFSRKTSRMLSKWRWSVQWRLSYKRTLADCISYCNEKMNNLLGTQDRLRDL
glycan array binding signal (z-score) [1]: -0.746
glycan array binding signal (z-score) [2]: -0.17
glycan array binding signal (z-score) [3]: -0.303
glycan array binding signal (z-score) [4]: -0.407
glycan array binding signal (z-score) [5]: -0.431
glycan array binding signal (z-score) [6]: 0.101
glycan array binding signal (z-score) [7]: -0.125
glycan array binding signal (z-score) [8]: -0.567
glycan array binding signal (z-score) [9]: 0.975
glycan array binding signal (z-score) [10]: 0.322
glycan array binding signal (z-score) [11]: 1.21
glycan array binding signal (z-score) [12]: 0.175
glycan array binding signal (z-score) [13]: -0.292
glycan array binding signal (z-score) [14]: 0.026
glycan array binding signal (z-score) [15]: 0.183
glycan array binding signal (z-score) [16]: -0.198
glycan array binding signal (z-score) (Neu5Ac(a2-3)GalNAc): 0.058
glycan array binding signal (z-score) [17]: -0.931
glycan array binding signal (z-score) [18]: -0.783
glycan array binding signal (z-score) [19]: -0.325
glycan array binding signal (z-score) [20]: -0.397
glycan array binding signal (z-score) [21]: 0.005
glycan array binding signal (z-score) (Neu5Ac(a2-6)Gal): 0.474
glycan array binding signal (z-score) [22]: -0.591
glycan array binding signal (z-score) (Neu5Ac(a2-6)Gal(b1-4)Glc): -0.14
glycan array binding signal (z-score) [23]: 0.396
glycan array binding signal (z-score) [24]: -0.252
glycan array binding signal (z-score) [25]: 0.067
glycan array binding signal (z-score) [26]: -0.171
glycan array binding signal (z-score) [27]: 0.18
glycan array binding signal (z-score) [28]: -0.727
glycan array binding signal (z-score) [29]: -0.42
glycan array binding signal (z-score) [30]: -0.662
glycan array binding signal (z-score) [31]: 0.399
glycan array binding signal (z-score) [32]: -0.482
glycan array binding signal (z-score) [33]: -0.017
glycan array binding signal (z-score) [34]: -0.325
glycan array binding signal (z-score) [35]: 0.137
glycan array binding signal (z-score) [36]: -0.317
glycan array binding signal (z-score) [37]: -0.852
glycan array binding signal (z-score) [38]: 0.156
glycan array binding signal (z-score) [39]: -0.372
glycan array binding signal (z-score) [40]: -0.19
glycan array binding signal (z-score) [41]: -0.478
glycan array binding signal (z-score) [42]: -0.437
glycan array binding signal (z-score) [43]: -0.523
